{"sequences": {"note": "Amino acid sequences for entries named in this document (tags omitted). Residues count along the entry.", "UniProt P62136, residues 7-300": "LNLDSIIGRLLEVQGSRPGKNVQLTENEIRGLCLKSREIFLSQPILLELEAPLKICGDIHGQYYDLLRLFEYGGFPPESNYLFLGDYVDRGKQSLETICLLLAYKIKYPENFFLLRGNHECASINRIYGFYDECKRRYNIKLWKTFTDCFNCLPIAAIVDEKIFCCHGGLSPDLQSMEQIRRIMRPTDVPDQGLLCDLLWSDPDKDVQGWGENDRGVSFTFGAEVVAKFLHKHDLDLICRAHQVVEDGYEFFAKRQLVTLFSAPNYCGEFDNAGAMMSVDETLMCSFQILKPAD"}, "source": "paper PMC10066265", "about": "“Inhibitor-3 inhibits Protein Phosphatase 1 via a metal binding dynamic protein–protein interaction” (Nature Communications, 2023)", "biological_target": "PP1α_(7-300) (co-expressed with GFP-I3_(27-68) in Expi293F cells) (UniProt P62136)", "assay": "crystal structure; I3_(27-68) and PP1α_(7-300) co-expressed in Expi293F cells; complex crystallised at 6.5 mg/ml; 2.0 Å", "note": "No constants are given. Whether binding was seen depends on the method and setting. Some entries that bind do so weakly or less than the wild type. Tags and fused reporters may be left off the sequences shown.", "data": [{"binder": "SLTIKLRKRKPEKKVEWTSDTVDNEHMGRRSSKCCCIYEKPR (domain or fragment, UniProt O60927 27-68)", "note": "[I3_(27-68) (expressed as GFP-I3_(27-68) with PP1α_(7-300) in Expi293F cells)]", "values": [{"measurement": "binding", "value": "binds"}]}]}
